Source: PubChem BioAssay AID686938 (Drosophila RNAi Screening Center, 2013)
In all, the deposit lists about 23,000 reagents; below is an unselected part of those that have a named target and a result. Of all reagents, 75 (0.33%) are marked active. 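Raw plate signals without normalisation; calls rest on plate z-scores that were not deposited; ratio present for only 364 wells.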 Reagents against one gene are numbered here. Not given: the dose of the treatment.

Test: 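Knock-downs reducing store-operated calcium influx in Drosophila cells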 (primary screen)
Cells: Drosophila S2R+ cells
Reagent: long dsRNA against Drosophila genes, about 0.25 µg dsRNA per well, roughly 10,000 cells
Timing: 5 days of knock-down before the calcium assay
Challenge: thapsigargin (SERCA pump blocker) to empty calcium stores; entry signal taken 4 min after adding it
Measured: 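Duplicate raw fluo-4 intensities per well from a plate reader, at rest and four minutes after thapsigargin emptied calcium stores; entry-to-rest ratio filled for only some wells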
Scale: calcium entry signal: higher = stronger calcium signal after store depletion; resting calcium signal: higher = higher resting calcium signal
Units: calcium entry signal in fluorescence units; resting calcium signal in fluorescence units
Hit rule: 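Called when the plate z-score of the entry-to-rest ratio, mean of duplicates, falls below −3; wells with low overall dye signal (Fmax z below −2) or more than five off-targets excluded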
Calls: active = strongly reduced calcium entry; inactive = no strong reduction

Mst89B | calcium entry signal, replicate 1: 3.30e7; calcium entry signal, replicate 2: 5.07e7; resting calcium signal, replicate 1: 1.68e7; resting calcium signal, replicate 2: 9.19e7; outcome: inactive
Cul3 #1 | calcium entry signal, replicate 1: 4.64e7; resting calcium signal, replicate 1: 2.62e7; outcome: inactive
Cul3 #2 | calcium entry signal, replicate 1: 3.77e7; calcium entry signal, replicate 2: 3.20e7; resting calcium signal, replicate 1: 2.13e7; resting calcium signal, replicate 2: 1.54e7; outcome: inactive
Mst84Dc | calcium entry signal, replicate 1: 3.17e7; calcium entry signal, replicate 2: 2.77e7; resting calcium signal, replicate 1: 1.59e7; resting calcium signal, replicate 2: 1.36e7; outcome: inactive
CG9346 | calcium entry signal, replicate 1: 3.63e7; resting calcium signal, replicate 1: 1.97e7; outcome: inactive
Prosap #1 | calcium entry signal, replicate 1: 3.60e7; calcium entry signal, replicate 2: 3.85e7; resting calcium signal, replicate 1: 1.86e7; resting calcium signal, replicate 2: 1.71e7; outcome: inactive
Prosap #2 | calcium entry signal, replicate 1: 5.20e7; calcium entry signal, replicate 2: 4.03e7; resting calcium signal, replicate 1: 2.17e7; resting calcium signal, replicate 2: 1.99e7; outcome: inactive
Gr66a | calcium entry signal, replicate 1: 2.05e7; calcium entry signal, replicate 2: 3.05e7; resting calcium signal, replicate 1: 1.02e7; resting calcium signal, replicate 2: 1.39e7; outcome: inactive
CG13601 | calcium entry signal, replicate 1: 3.10e7; calcium entry signal, replicate 2: 3.06e7; resting calcium signal, replicate 1: 1.55e7; resting calcium signal, replicate 2: 1.41e7; outcome: inactive
Ide | calcium entry signal, replicate 1: 4.72e7; calcium entry signal, replicate 2: 4.93e7; resting calcium signal, replicate 1: 2.18e7; resting calcium signal, replicate 2: 3.35e7; outcome: inactive
CG14687 | calcium entry signal, replicate 1: 3.26e7; calcium entry signal, replicate 2: 2.69e7; resting calcium signal, replicate 1: 1.76e7; resting calcium signal, replicate 2: 1.48e7; outcome: inactive
viaf | calcium entry signal, replicate 1: 5.52e7; calcium entry signal, replicate 2: 4.46e7; resting calcium signal, replicate 1: 3.61e7; resting calcium signal, replicate 2: 1.94e7; outcome: inactive
Grl65a | calcium entry signal, replicate 1: 2.62e7; calcium entry signal, replicate 2: 4.26e7; resting calcium signal, replicate 1: 1.39e7; resting calcium signal, replicate 2: 1.87e7; outcome: inactive
Cpr92F | calcium entry signal, replicate 1: 3.79e7; calcium entry signal, replicate 2: 4.77e7; resting calcium signal, replicate 1: 4.65e7; resting calcium signal, replicate 2: 2.04e7; outcome: inactive

2 successive entries already listed, for reference:
Mst89B | calcium entry signal, replicate 1: 3.30e7; calcium entry signal, replicate 2: 5.07e7; resting calcium signal, replicate 1: 1.68e7; resting calcium signal, replicate 2: 9.19e7; outcome: inactive
Cul3 #1 | calcium entry signal, replicate 1: 4.64e7; resting calcium signal, replicate 1: 2.62e7; outcome: inactive
